# Laboratory results reported in patent publication EP1757617A1.
# The chains behind the UniProt entries cited, without tags or fusion partners. Where a name states a change or a piece, a line headed by the entry shows the natural chain unless it says otherwise.
# UniProt G3V9H8: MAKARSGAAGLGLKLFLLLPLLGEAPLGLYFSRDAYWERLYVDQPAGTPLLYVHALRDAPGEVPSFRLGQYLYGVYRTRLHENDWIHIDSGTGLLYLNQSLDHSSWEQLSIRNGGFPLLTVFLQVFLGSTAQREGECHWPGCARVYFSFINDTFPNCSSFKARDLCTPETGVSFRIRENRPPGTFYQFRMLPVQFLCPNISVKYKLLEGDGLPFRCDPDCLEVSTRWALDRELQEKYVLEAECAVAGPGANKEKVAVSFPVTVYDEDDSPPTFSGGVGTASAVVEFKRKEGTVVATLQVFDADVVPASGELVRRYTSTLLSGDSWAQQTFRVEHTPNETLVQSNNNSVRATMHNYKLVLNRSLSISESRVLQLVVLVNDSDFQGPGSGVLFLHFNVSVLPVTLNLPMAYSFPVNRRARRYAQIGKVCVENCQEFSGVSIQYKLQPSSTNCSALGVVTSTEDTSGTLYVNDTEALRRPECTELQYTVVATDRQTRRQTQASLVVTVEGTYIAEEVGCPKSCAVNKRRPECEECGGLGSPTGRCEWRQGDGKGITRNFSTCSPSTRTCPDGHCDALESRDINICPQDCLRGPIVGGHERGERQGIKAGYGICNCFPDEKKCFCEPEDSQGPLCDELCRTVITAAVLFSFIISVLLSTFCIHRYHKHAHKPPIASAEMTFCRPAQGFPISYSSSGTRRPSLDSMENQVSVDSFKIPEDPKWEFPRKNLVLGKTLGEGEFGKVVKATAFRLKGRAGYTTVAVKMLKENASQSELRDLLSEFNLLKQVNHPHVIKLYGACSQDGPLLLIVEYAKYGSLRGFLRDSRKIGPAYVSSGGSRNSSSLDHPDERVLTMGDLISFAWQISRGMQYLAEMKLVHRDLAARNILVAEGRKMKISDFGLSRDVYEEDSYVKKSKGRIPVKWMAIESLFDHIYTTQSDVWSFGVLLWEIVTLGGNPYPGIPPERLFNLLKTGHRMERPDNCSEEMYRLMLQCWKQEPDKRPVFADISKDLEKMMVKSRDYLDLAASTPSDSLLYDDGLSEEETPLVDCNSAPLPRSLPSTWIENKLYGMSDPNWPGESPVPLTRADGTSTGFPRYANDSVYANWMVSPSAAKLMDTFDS
# Results are given in words; binding and its absence hold for the method and conditions named. Some binding calls cover weakened binding; strength is not graded here.
# Experiments:
# [1] = target: T1, human RetL2 expressed on 293/EBNA cells from the insert of clone DSW240 (human) (UniProt O00451); experiment: staining of transfected 293/EBNA cells with rat Ret/IgG
# T1 sequence: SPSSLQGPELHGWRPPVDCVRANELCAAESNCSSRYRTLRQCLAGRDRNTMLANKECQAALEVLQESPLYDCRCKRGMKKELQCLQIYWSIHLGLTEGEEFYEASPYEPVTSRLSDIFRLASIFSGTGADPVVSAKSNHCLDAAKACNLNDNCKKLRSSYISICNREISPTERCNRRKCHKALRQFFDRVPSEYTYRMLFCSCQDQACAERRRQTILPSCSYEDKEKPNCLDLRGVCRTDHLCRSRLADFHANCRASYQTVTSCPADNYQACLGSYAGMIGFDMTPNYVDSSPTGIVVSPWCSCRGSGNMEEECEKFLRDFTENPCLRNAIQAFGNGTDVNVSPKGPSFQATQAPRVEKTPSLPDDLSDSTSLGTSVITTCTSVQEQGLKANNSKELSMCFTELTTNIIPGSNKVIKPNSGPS
# [2] = target: T1, human RetL2 expressed on 293/EBNA cells from the insert of clone DSW240 (human); experiment: staining of transfected 293/EBNA cells with 20 ug/ml rat Ret/IgG and AP-coupled anti-human IgG
substance,measurement,setting,value
rat Ret/IgG fusion protein (from UniProt G3V9H8 24-637) (Fc fusion),binding,[1],binds
same,binding,[2],binds
